Values from PubChem BioAssay AID652243 (Drosophila RNAi Screening Center, 2013)

Aim: 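Fly genes required for human androgen receptor driven transcription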 (primary screen)
System: Drosophila S2R+ cells
Knock-down reagent: long dsRNA against Drosophila genes
Time to read-out: 72 h (48 h, then 24 h hormone)
Conditions: synthetic androgen R1881 at 10 nM for 24 h
Measured: 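Per-well raw luminescence of the androgen-driven firefly reporter and of the Renilla control, two replicates each, without normalisation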
Reading the numbers: firefly reporter light: higher = more light from androgen-responsive reporter; Renilla control light: higher = more constitutive control signal (cell number, transfection)
Active means: 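Across duplicate plates, a knock-down whose log firefly/Renilla ratio shifted a set fold down or up from the GFP/LacZ control mean was a hit; the downward cut appears as both 1.5 and 3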
Calls: active = hit: reporter lowered or raised; inactive = no hit
The screen tested about 24,000 reagents; this is a random part of those that have a named target and a result. Of all reagents, 246 (1%) are marked active. 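Plates not normalised; calls are printed but the firefly/Renilla ratio behind them is not deposited; fold cut for lowering reported inconsistently.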 The raw values are shown without normalisation. A number with no mark means an inactive call. The record does not give: the amount of reagent.

target gene | dsRNA | firefly reporter light, replicate 1 | firefly reporter light, replicate 2 | Renilla control light, replicate 1 | Renilla control light, replicate 2
Sdhaf3 (Succinate dehydrogenase assembly factor 3) | DRSC15020 | 2.38e5 | 1.97e5 | 2.21e6 | 2.51e6
BomBc3 (Bomanin Bicipital 3) | DRSC15873 | 2.38e5 | 3.91e5 | 2.88e6 | 3.42e6
BomBc3 (Bomanin Bicipital 3) | DRSC29503 | 6.26e5 | 6.37e5 | 9.84e5 | 9.84e5
CG4582 | DRSC15605 | 1.73e5 | 2.38e5 | 2.74e6 | 2.93e6
CG13392 | DRSC02262 | 1.69e5 | 1.83e5 | 1.21e6 | 1.32e6
CG7772 | DRSC20056 | 70837 | 99022 | 8.74e5 | 1.11e6
CG42521 | DRSC10154 | 2.62e5 | 1.59e5 | 3.25e6 | 2.45e6
CG12828 | DRSC06177 | 4.52e5 | 3.58e5 | 2.31e6 | 1.59e6
Efr (ER GDP-fucose transporter) | DRSC18322 | 3.62e5 | 3.06e5 | 2.36e6 | 2.30e6
Efr (ER GDP-fucose transporter) | DRSC26945 | 4.02e5 | 3.11e5 | 9.95e5 | 5.18e5
CG8534 | DRSC16439 | 1.19e5 | 1.11e5 | 1.92e6 | 2.13e6
disco-r (disco-related) | DRSC20173 | 5.80e5 | 6.06e5 | 4.05e6 | 3.61e6
disco-r (disco-related) | DRSC20174 | 6.94e5 | 5.00e5 | 3.13e6 | 1.41e6
obst-I (obstructor-I) | DRSC08339 | 1.32e6 | 1.24e6 | 2.04e6 | 1.91e6
CG5276 | DRSC15759 | 2.34e5 | 2.11e5 | 2.87e6 | 3.25e6
Oatp33Eb (Organic anion transporting polypeptide 33Eb) | DRSC02955 | 2.11e5 | 2.62e5 | 1.84e6 | 1.76e6
Ir62a (Ionotropic receptor 62a) | DRSC08250 | 49870 | 1.30e5 | 8.25e5 | 1.68e6
Mco4 (Multicopper oxidase 4) | DRSC20061 | 3.83e5 | 3.50e5 | 3.30e6 | 3.10e6
Mco4 (Multicopper oxidase 4) | DRSC27932 | 6.53e5 | 4.75e5 | 2.41e6 | 2.02e6
CG14499 | DRSC06470 | 70116 | 1.08e5 | 1.40e6 | 1.40e6
CG12496 | DRSC18602 | 1.22e5 | 1.22e5 | 1.83e6 | 1.47e6
CG12496 | DRSC28576 | 3.84e5 | 6.50e5 | 1.31e6 | 1.91e6
Had1 (beta Hydroxy acid dehydrogenase 1) | DRSC20216 | 5.35e5 | 5.07e5 | 3.17e6 | 2.23e6
Sox15 (Sox box protein 15) | DRSC07555 | 38187 | 69150 | 7.77e5 | 7.77e5
Sox15 (Sox box protein 15) | DRSC28528 | 3.13e5 | 6.00e5 | 9.94e5 | 1.34e6

Records above whose target name starts with B or b (2):
target gene | dsRNA | firefly reporter light, replicate 1 | firefly reporter light, replicate 2 | Renilla control light, replicate 1 | Renilla control light, replicate 2
BomBc3 (Bomanin Bicipital 3) | DRSC15873 | 2.38e5 | 3.91e5 | 2.88e6 | 3.42e6
BomBc3 (Bomanin Bicipital 3) | DRSC29503 | 6.26e5 | 6.37e5 | 9.84e5 | 9.84e5
